Source: PMC5240590
No constants are given. Whether binding was seen depends on the method and setting.

Target: T1, recombinant human α-fetoprotein (R-AFP) (human), P02771
T1 chain: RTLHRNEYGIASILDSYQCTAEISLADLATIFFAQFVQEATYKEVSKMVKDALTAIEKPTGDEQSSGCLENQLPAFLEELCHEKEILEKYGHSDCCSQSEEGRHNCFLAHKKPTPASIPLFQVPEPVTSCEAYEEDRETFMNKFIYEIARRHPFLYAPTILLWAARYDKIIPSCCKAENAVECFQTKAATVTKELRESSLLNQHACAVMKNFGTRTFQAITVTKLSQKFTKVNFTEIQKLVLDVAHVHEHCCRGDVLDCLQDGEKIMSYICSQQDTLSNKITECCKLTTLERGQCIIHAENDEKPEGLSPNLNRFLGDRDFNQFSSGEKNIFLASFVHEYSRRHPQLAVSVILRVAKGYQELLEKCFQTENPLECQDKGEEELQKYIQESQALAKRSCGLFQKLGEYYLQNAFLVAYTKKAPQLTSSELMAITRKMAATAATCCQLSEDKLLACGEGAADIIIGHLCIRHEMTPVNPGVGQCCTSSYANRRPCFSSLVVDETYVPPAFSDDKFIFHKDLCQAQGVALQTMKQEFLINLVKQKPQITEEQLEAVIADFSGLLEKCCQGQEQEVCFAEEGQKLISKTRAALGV
Test: SEC; Superdex 200 gel filtration of Ni-purified R-AFP, HBS buffer (10 mM Hepes pH 7.2, 150 mM NaCl), 1 ml/min, detection at 280 nm; elution at 15.0 ml, position of 65-70 kDa; both purified
Settings: remark: other sources report otherwise

binding: no binding
B1: recombinant human α-fetoprotein (R-AFP), P02771 19-609 (protein)
chain: RTLHRNEYGIASILDSYQCTAEISLADLATIFFAQFVQEATYKEVSKMVKDALTAIEKPTGDEQSSGCLENQLPAFLEELCHEKEILEKYGHSDCCSQSEEGRHNCFLAHKKPTPASIPLFQVPEPVTSCEAYEEDRETFMNKFIYEIARRHPFLYAPTILLWAARYDKIIPSCCKAENAVECFQTKAATVTKELRESSLLNQHACAVMKNFGTRTFQAITVTKLSQKFTKVNFTEIQKLVLDVAHVHEHCCRGDVLDCLQDGEKIMSYICSQQDTLSNKITECCKLTTLERGQCIIHAENDEKPEGLSPNLNRFLGDRDFNQFSSGEKNIFLASFVHEYSRRHPQLAVSVILRVAKGYQELLEKCFQTENPLECQDKGEEELQKYIQESQALAKRSCGLFQKLGEYYLQNAFLVAYTKKAPQLTSSELMAITRKMAATAATCCQLSEDKLLACGEGAADIIIGHLCIRHEMTPVNPGVGQCCTSSYANRRPCFSSLVVDETYVPPAFSDDKFIFHKDLCQAQGVALQTMKQEFLINLVKQKPQITEEQLEAVIADFSGLLEKCCQGQEQEVCFAEEGQKLISKTRAALGV
